# Laboratory results as given in publication PMC7378325.
# Results are given in words; binding and its absence hold for the method and conditions named. Binding seen in cells or lysates may run through a third protein. Tags and fused reporters may be left off the sequences shown.
# Target: myc-GABAB1b
# Test: co-IP; COS-7 cells triple transfected with myc-GABAB1a or myc-GABAB1b, HA-GABAB2 and fibulin-2-Flag; extract in PBS with 1% CHAPS, 25 mM Hepes, 150 mM NaCl, pH 7.4; IP with anti-myc or anti-flag, Western blot
binder,measurement,value
"Fibulin-2-Flag (protein, UniProt P37889 27-1221) VPWQDCTGAECPLLENCIEEALEPGACCATCVQQGCACEGYQYYDCVQGGFVDGRVPAGQSYFVDFGSTECSCPPGGGKISCQFMLCPELPPNCIEAVVVADSCPQCGQVGCVHSGRKYAAGHTVHLSSCRACHCPDAGGELICYQLPGCHGNFSDAEEGDSERQYEDPYSYDQEVAEAEATTAIVNEVQAGAEGPPAALGGGNLPPSSIRVTPWPVALPRPTAAAALGPPAPVQAKARRVTLDTEEDEEEEEEETLVTEPPTAGSPGRLDSLPTRSPARPGFPVQEKEAEAKAGPEENLIPDAQVTPRSVMQEGAAPLPRSGLAALSPSLATDSSSEDPVKPSDHPTLSTLPPDRAQVSPSPETPEEIPQHPQLLPRFRAEEDIDPNSVHSVPRGDLDGSTKDLIETCCAAGQQWAIDNDECQEIPENGAQSDICRIAQRQCCISYLKEKSCVAGVMGAKEGETCGAEDNDTCGVSLYKQCCDCCGLGLRVRAEGQSCESNPNLGYPCNHVMLSCCEGEEPLIVPEVRRPPEPEAAPRRVSEMEMASREALSLGTEAELPNSLPGDDQDECLMLPGELCQHLCINTVGSYRCACFPGFELQGDGRTCRPDRGAPQLDTARESAPRSESAQVSPNTIPLPVPQPNTCKDNGPCRQVCRVVGDTAMCSCFPGYAIMADGVSCEDQDECLMGTHDCSWKQFCVNTLGSFYCVNHTVLCAEGYILNAHRKCVDINECVTDLHTCTRAEHCVNTPGSFQCYKALTCEPGYVLTDGECTDVDECVTGTHNCQAGFSCQNTKGSFYCQARQRCMDGFLQDPEGNCVDINECTSLLEPCRSGFSCINTVGSYTCQRNPLVCGRGYHANEEGSECVDVNECETGVHRCGEGQLCYNLPGSYRCDCKPGFQRDAFGRTCIDVNECWVSPGRLCQHTCENTPGSYRCSCAAGFLLAADGKHCEDVNECETRRCSQECANIYGSYQCYCRQGYQLAEDGHTCTDIDECAQGAGILCTFRCVNVPGSYQCACPEQGYTMMANGRSCKDLDECALGTHNCSEAETCHNIQGSFRCLRFDCPPNYVRVSETKCERTTCQDITECQTSPARITHYQLNFQTGLLVPAHIFRIGPAPAFAGDTISLTITKGNEEGYFVTRRLNAYTGVVSLQRSVLEPRDFALDVEMKLWRQGSVTTFLAKMYIFFTTFAP",binding,no binding
